{
  "source": "patent US8790883B2",
  "about": "“Methods of identifying NF-κB inhibitors” (priority 2003, dated 2014)",
  "test_system": "LPS-induced NF-κB activation",
  "assay": "More stringent NF-κB inhibition assay, second procedure: peptide internalization, washing, 24 h growth, then LPS",
  "assay_type": "cell-based, murine",
  "settings": "10 μM peptide",
  "description": "Left panels show a helical wheel diagram of CC2 (A) and LZ (B) peptides. The view is from the top the molecule. The (a) through (g) positions, which are an essential feature of coiled coil sequence (Vinson, 2002, Mol. Cell. Biol.) represent sequential positions in each peptide sequence. The first (a) and fourth (d) positions that are generally occupied by hydrophobic amino acids constitute the hydrophobic core for parallel as well as antiparallel-coiled coils. […] NF-κB activity was measured using the β-galactosidase assay. […]\n(A) Sequence alignment of the NEMO-derived LZ (residues 301-336 of SEQ ID NO: 12) and the GCN4 peptides (residues 23-55 of SEQ ID NO:8). […] NF-κB activity was measured using the b-galactosidase assay. […]",
  "data": [
    {"substance": "B-CRQIKIWFQNRRMKWKKSKGMQRMKQLEDKVEELLSKNYHLENEVARLKKLVGER (BODIPY label) [BODIPY-Ant-GCN4 (WT), reference compound]", "values": [
      {"measurement": "Effect on LPS-induced NF-κB activation", "value": "no ability to inhibit NF-κB activation"}
    ]}
  ]
}
